## Library screening results

From ChEMBL document CHEMBL3988442, “University of Dundee, Small-Polar-MMV Screening Library” (2021).

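Whole-cell assay for inhibitors of Mycobacterium tuberculosis growth, labelled Cornell in the record; the read-out is not stated. The concentration is filed as 10 mM, unlikely as a test dose, so the dose is not known. The record gives no direction; compounds strong in two other growth screens of this library score well above the rest, so higher reads as stronger inhibition. Of about 53,000 compounds tested this way, about 900 (1.7%) reached 50% or more in at least one test.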

Results are given as percent effect. How 0% and 100% were set is not recorded. Most values in the screen are low, and negative values occur. The compounds are a random part of those screened.

structure,percent effect
CCC(C)N(C)CCNC(=O)NCc1cccc(-n2cncn2)c1 (stereo not shown),-2.204%
O=C(O)C(F)(F)F.O=C(O)C(F)(F)F.O=C1NCC[C@]12CN(Cc1cccnc1)C[C@H]2c1ccccc1,7.687%
Cc1cc(C(=O)N2CCn3nc(C(=O)NC4CC4)cc3C2)nc(C)n1,6.635%
[H][C@@]12CS(=O)(=O)C[C@]1([H])N(C(=O)c1ccco1)CCN2S(C)(=O)=O,1.012%
CC(NC(=O)NCCCO)c1ccc2c(c1)OCCO2 (stereo not shown),7.006%
O=C([C@@H]1CCCO1)N1CCOCC2(CCN(Cc3cccnc3)C2)C1 (stereo partly shown),-8.114%
COc1ccc2c(c1)CN(CC1CC1)C(=O)CCN2CC(C)(C)O,-6.345%
CCc1noc(C(C)N(C)CC(=O)Nc2c(C)cccc2C)n1 (stereo not shown),-17.14%
Cc1ccccc1OCCCC(=O)NCc1ccnc(O)c1,-10.02%
N#Cc1ccccc1N1CCC(Nc2nccnc2C#N)CC1,9.619%
COc1cccc(OCCCc2cncc(C(N)=O)c2)c1,17%
[H][C@]12CC[C@]([H])(CN(Cc3ccccn3)C1)N(Cc1cc(C(C)(C)C)[nH]n1)C2,37.05%
CCN(CC)C(CNCc1ccc(OC)c(F)c1)c1ccco1 (stereo not shown),-9.119%
Cc1c2c(C(F)F)cc(SCC(=O)O)nc2nn1C,-32.34%
O=C1OCCN1CCNCC1(O)CCCN(CCC2CCCCC2)C1=O (stereo not shown),14.25%
O=C(N1CC(c2cccnc2)C1)C1(c2ccc(F)cc2)CCOCC1,13.82%
CC(C)NC(=O)c1cccc(NC(=O)CCCc2nc(C(C)C)no2)c1,-11.31%
O=C(O)C(F)(F)F.[H][C@]12CN(c3ncccn3)C[C@@]1(C(=O)O)CCCN(C1CCOC1)C2 (stereo partly shown),-10.03%
NC(=O)CN1CC2(CCC1=O)CCN(Cc1ccc(Cl)c(F)c1)CC2,-10.91%
CCOC1COC2(CCN(Cc3cccc(F)c3)CC2)C1.O=C(O)C(F)(F)F (stereo not shown),-8.23%
Cc1ccc(C(=O)Nc2cc(C(C)C)n[nH]2)cn1,12.7%
C=C(C)COc1ccccc1C(=O)NCCc1nncn1C,-19.62%
COCC(C)NC(=O)c1nnn(-c2ccc(OC)cc2)n1 (stereo not shown),-28.36%
O=C1COc2ccc(C(=O)NS(=O)(=O)c3ccccc3Cl)cc2N1,-38.13%
CCn1cnnc1C1CCN(C(=O)COc2ccc(Cl)cc2)CC1,-65.79%
CSc1sc2c(O)cc(=O)[nH]c2c1C(N)=O,28.59%
Cc1cc(=O)c(C(=O)Nc2cccc(CCN3CCCC3)c2)c[nH]1,-3.164%
O=C(c1ccoc1)N1CCc2ncc(Cn3cccn3)n2CC1,-75.54%
CC(=O)N1CCCCC1c1cc(CO)[nH]n1 (stereo not shown),8.857%
Cc1cccc(N2CCN(C(=O)CNCCn3cc(C)cn3)CC2)c1,-22.7%
O=C(NC1COC2(CCN(CC3CCC3)CC2)C1)c1ccccn1.O=C(O)C(F)(F)F (stereo not shown),-2.784%
[H][C@@]12CS(=O)(=O)C[C@]1([H])N(C(=O)c1ccnn1C)CCN2C(=O)C1CC1,-14.52%
CC(CC(F)(F)F)NCc1ccccc1-n1ccnc1 (stereo not shown),30.15%
CN(CCN1CCCCCC1)C(=O)c1c(O)cccc1O,-14.4%
CCOCc1cnc2n1CCN(C(=O)C1=CCCC1)C2C (stereo not shown),16.13%
N#Cc1cccc(NS(=O)(=O)c2ccc(C(=O)O)cc2F)c1,-30.59%
CCN1CCC(NC(=O)CN2CCCC2Cn2nc(C)cc2C)CC1 (stereo not shown),-13.01%
CS(=O)(=O)NCCN(CCCO)C1CCc2ccccc21 (stereo not shown),11.04%
CCc1cnc(CNC(=O)N2CCCC(c3ncc[nH]3)C2)s1 (stereo not shown),40.38%
Cc1nc(C2CCCCC2)sc1C(=O)O,-5.693%
O=C(O)C(F)(F)F.[H][C@@]12COC[C@]1([H])[C@@H](OCC(=O)N(C)C)CN2Cc1cccc(C#N)c1,-6.286%
Cc1ccc(S(=O)(=O)N2CCn3nc(C)nc3C2)c(Cl)c1,11.49%
Cc1noc(C)c1NC(=O)Cn1cc(Br)ccc1=O,19.51%
CC(C)(C)n1ccc(C(=O)N2CCCC(c3ccc(C(=O)O)cc3)C2)c1 (stereo not shown),-4.564%
Cc1ccnc(CNC(=O)C2CC(=O)N(CCN(C)C)C2)c1 (stereo not shown),15.57%
O=C(C1CCCC1)N1CCC(C2CCN(Cc3ccc(Cl)cc3)C2)CC1 (stereo not shown),43.81%
CN1CCCC(Cc2ccnc3ccncc23)CC1 (stereo not shown),-7.966%
Cc1nc(CC(=O)N2CCCN(c3ccc(C#N)cc3)CC2)cs1,0.5576%
CCn1cnnc1CNC(=O)NC(C)c1cccs1 (stereo not shown),-3.904%
CCCc1cc(CNC2CCN(c3nc(C)cc(C)n3)CC2)on1,-8.747%
CS(=O)(=O)NCCC(=O)NC1CCc2nccn2C1 (stereo not shown),19.91%
c1ccc(-n2ncc(CN3CCCC3Cn3cccn3)n2)cc1 (stereo not shown),22.85%
[H][C@@]12CCN(S(C)(=O)=O)CC[C@]1(C(=O)Nc1ccccc1)CCN2C(C)=O,-10.28%
O=C(Cc1cccs1)NCC1(O)CCc2ccccc2C1 (stereo not shown),-23.19%
Cc1nc(-c2ccccc2)sc1CSCCC(N)=O,-2.967%
O=C(O)C(F)(F)F.O=C(O)C(F)(F)F.[H][C@]12CCC[C@@H](CNC(C)(C)C)[C@@]1([H])CN(Cc1csnn1)C2,18.79%
O=S(=O)(Cc1cc(-c2ccccc2)no1)CC1CCCO1 (stereo not shown),8.563%
NC(=O)C1CCN(C(=O)c2ccccc2OCc2ccncc2)CC1,39.09%
O=C(O)C(F)(F)F.O=C(O)C(F)(F)F.c1cncc(COCc2nnc3n2CCN(Cc2ccsc2)C3)c1,-58.37%
COCCN1CCC2(COCc3cnc(N(C)C)nc32)C1.O=C(O)C(F)(F)F (stereo not shown),13.52%
CC1N(c2cnn(C)c2)C(=O)COC12CCN(Cc1ccco1)CC2.O=C(O)C(F)(F)F (stereo not shown),2.626%
Cc1ccc(CN2CCNC(=O)C2CC(=O)N2CCSCC2)o1 (stereo not shown),-15.64%
Cn1nc2c(cc1=O)CN(Cc1nnc(-c3ccc(F)cc3)o1)CC2,12.36%
COc1ccc(CNc2nncs2)cc1F,-15.67%
C=C(C)COc1cccc(C(=O)N2CCC(O)(c3ccccc3)CC2)c1,-8.163%
CC(C)Cn1nnnc1SC(C(=O)NCc1cccnc1)C(C)C (stereo not shown),-22.12%
[H][C@@]12CCN(C3CCOCC3)C[C@@]1([H])O[C@@H](C(=O)N(C)C)C2,6.542%
CC(C)Cc1noc(CN(C)C(=O)C2COc3ccccc3C2)n1 (stereo not shown),12.95%
O=C(CCCc1ccccn1)N1CCSC2(CCCCC2)C1,35.76%
Cc1noc(C)c1CN1C[C@@H](C(=O)O)[C@H](C(C)C)C1,4.786%
CCn1c(C2CCN(C(=O)CCc3cc(Cl)no3)CC2)nn(C)c1=O,-4.25%
COc1cc(C)c(CNC(C)c2csc(C)n2)cc1OC (stereo not shown),-3.169%
CN1CCCC2(CCN(S(=O)(=O)c3c(Cl)nc4sccn34)C2)C1=O (stereo not shown),15.06%
CC1COc2ccccc2N1C(=O)c1ccc(=O)n(C)c1 (stereo not shown),-7.699%

For reference, 9 entries once more:

{"structure": "CCn1cnnc1C1CCN(C(=O)COc2ccc(Cl)cc2)CC1", "percent effect": -65.79}
{"structure": "O=C(O)C(F)(F)F.[H][C@@]12COC[C@]1([H])[C@@H](OCC(=O)N(C)C)CN2Cc1cccc(C#N)c1", "percent effect": -6.286}
{"structure": "O=C(c1ccoc1)N1CCc2ncc(Cn3cccn3)n2CC1", "percent effect": -75.54}
{"structure": "CC(=O)N1CCCCC1c1cc(CO)[nH]n1", "stereo": "stereo not shown", "percent effect": 8.857}
{"structure": "CC(CC(F)(F)F)NCc1ccccc1-n1ccnc1", "stereo": "stereo not shown", "percent effect": 30.15}
{"structure": "c1ccc(-n2ncc(CN3CCCC3Cn3cccn3)n2)cc1", "stereo": "stereo not shown", "percent effect": 22.85}
{"structure": "O=C(NC1COC2(CCN(CC3CCC3)CC2)C1)c1ccccn1.O=C(O)C(F)(F)F", "stereo": "stereo not shown", "percent effect": -2.784}
{"structure": "Cc1nc(C2CCCCC2)sc1C(=O)O", "percent effect": -5.693}
{"structure": "Cc1cc(=O)c(C(=O)Nc2cccc(CCN3CCCC3)c2)c[nH]1", "percent effect": -3.164}